# Source: patent US12351821B2, “Method to prepare sperm” (University of Massachusetts, priority 2016, dated 2025)
# For at least one compound, name, drawing or mass did not settle the structure.
# Experiments:
# C57Bl6/j mouse sperm = experiment: Motility and hyperactivated motility (CASA) of starved sperm after addition of nutrients; assay type: cell-based; details: nutrient added after starving (glucose 5 mM, pyruvate 0.5 mM)
# [1] = tested on: PKA activation and tyrosine phosphorylation; experiment: PKA substrate and tyrosine phosphorylation in sperm with different energy nutrients; assay type: cell-based, mouse
structure (smiles),measurement,setting,value
CC(=O)C(=O)O [pyruvate],motility of sperm after 1 hour in the absence of nutrients,C57Bl6/j mouse sperm,rescued
same,increase in tyrosine phosphorylation with a single substrate in the incubation media,"[1]; capacitating conditions, no starving, single substrate",reduced
same,activation of PKA after 1 hour incubation in the absence of nutrients,[1]; nutrient added after starving,rescued activation of PKA
